Data taken from PubChem BioAssay AID1259354 (Paczesny and Yang Labs, IUPUI and University of Michigan, 2018).
In all, about 78,000 compounds went through this assay and about 1,800 (2.3%) were called active. Inconclusive results, whose numbers are uncertain, are shown with a selection of clear calls. Cut-off read from the data, not from the text of the source: active = inhibition above about 30%; inconclusive = mostly about 10% to 28%; inactive = weaker than that.

Protein sequences, listed by entry. Tags and fused reporters are not part of them. Lines headed by an entry give the natural chain unless they say otherwise; changes in a name come on top.
UniProt Q01638: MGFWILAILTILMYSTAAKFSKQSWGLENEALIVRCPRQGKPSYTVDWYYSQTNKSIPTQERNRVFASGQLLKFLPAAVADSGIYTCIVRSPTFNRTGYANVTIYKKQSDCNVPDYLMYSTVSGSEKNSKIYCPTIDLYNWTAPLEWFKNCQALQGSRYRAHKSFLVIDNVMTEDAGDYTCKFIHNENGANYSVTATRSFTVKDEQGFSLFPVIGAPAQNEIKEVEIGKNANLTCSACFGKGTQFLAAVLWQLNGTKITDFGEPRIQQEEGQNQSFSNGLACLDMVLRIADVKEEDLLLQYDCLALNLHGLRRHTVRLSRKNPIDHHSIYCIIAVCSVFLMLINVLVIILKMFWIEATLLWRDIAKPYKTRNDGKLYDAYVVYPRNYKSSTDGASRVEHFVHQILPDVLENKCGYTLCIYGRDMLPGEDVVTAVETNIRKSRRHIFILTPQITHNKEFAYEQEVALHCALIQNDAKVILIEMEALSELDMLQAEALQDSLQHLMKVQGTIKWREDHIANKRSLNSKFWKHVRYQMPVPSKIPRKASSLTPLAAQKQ

target: Interleukin-1 receptor-like 1 (Homo sapiens) (UniProt Q01638); assay: blocks human ST2 binding to IL-33, primary screen, biochemical, AlphaLISA (AID 1259354); conditions: AlphaLISA ST2-Fc/biotin-IL-33 interaction, 1 h; at 17 µM, hits give high values

| SMILES | inhibition |
| --- | --- |
| COc1ccccc1OCc1nc(C#N)c(NCc2ccc(F)cc2)o1 | inconclusive: 19% |
| CCCc1nc(C)cc(N2CC(n3nc(C)cc3C)C2)n1 | inconclusive: 23% |
| COc1ccc2nc(NC(=O)COc3ccc(C)cc3)sc2c1 | inconclusive: 13% |
| CCCCc1ncc([C@@H]2C[C@H](NC(C)=O)C[C@H](CC(C)C)O2)[nH]1 | inactive |
| COc1ccccc1OCC(=O)Nc1c(C(=O)Nc2ccc(F)cc2)oc2ccccc12 | inconclusive: 13% |
| CCOC(=O)c1c(NC(=O)COc2ccc(C(C)(C)C)cc2)sc(C(C)=O)c1C | inactive |
| O=S1(=O)CC2N=C(Nc3ccc(F)cc3F)SC2C1 (centres undefined) | inactive |
| Cc1ccc(-c2ccnc(NCCc3nc(C(C)C)no3)n2)c(C)n1 | inconclusive: 12% |
| CC(=O)Nc1ccc(S(=O)(=O)Nc2cccc(F)c2)cc1 | inactive |
| COc1cc(C2OCC3C(C)C=C(C)C2C3C)ccc1OCc1ccc(C(=O)O)cc1 (centres undefined) | inactive |
| CC1=C(C(=O)Nc2ccc(C)cc2C)C(c2cc(Br)ccc2F)n2nnnc2N1 (centres undefined) | inconclusive: 13% |
| Cc1ccc(-c2nnc(CN3CCCC4(CNC(=O)O4)C3)o2)n1C (centres undefined) | inactive |
| CCOc1ccc(S(=O)(=O)N2CCN(c3nc(C)cc(N(C)C)n3)CC2)cc1 | inconclusive: 11% |
| CC1(C(=O)NCc2cccnc2)CCC(=O)N1Cc1ccc(F)cc1Cl (centres undefined) | inconclusive: 10% |
| CC1=C(C(=O)OCc2ccc(C)cc2)C(c2ccc(N(C)C)cc2)NC(=O)N1 (centres undefined) | inconclusive: 11% |
| Nc1nc(-c2ccccc2)c(-c2ccc([N+](=O)[O-])cc2)s1 | inconclusive: 23% |
| Cc1ccc(-c2ccnc(N3[C@@H]4CC[C@H]3CNC(=O)C4)n2)c(C)n1 | inconclusive: 11% |
| Cc1cc(C)n(CC(=O)Nc2ccc(F)c(Cl)c2)c(=O)c1C#N | inconclusive: 14% |
| Cc1cccc(N2CCN(Cc3cc4c(cc3[N+](=O)[O-])OCO4)CC2)c1C | active: 37% |
| CC(C)c1ccc(CNCCCN(C)C)cc1 | inactive |

| SMILES | inhibition |
| --- | --- |
| Cc1ccc2nc(N3CCN(CC(=O)NC(C)C)CC3)cc(C)c2c1 | inactive |
| Cc1nnc(SCCn2c(N(C)Cc3ccccc3)nc3c2c(=O)n(C)c(=O)n3C)s1 | inconclusive: 18% |
| N#Cc1c(N2CCc3ccccc3C2)ncc2c(=O)c3ccccc3[nH]c12 | inconclusive: 10% |
| Cc1[nH]cnc1-c1nccn1C(Cc1ccccc1)C(=O)O (centres undefined) | inconclusive: 10% |
| CCCn1nnc2cc(C(=O)NC(C)C(=O)Nc3ccc(S(N)(=O)=O)cc3)ccc21 (centres undefined) | inconclusive: 14% |
| COc1cc(C2C3=C(CCCC3=O)NC3=C2C(=O)CCC3)cc(I)c1O | inactive |
| c1ccc2sc([C@H]3CCN(CC4CCCCC4)C3)nc2c1 | inconclusive: 11% |
| COc1ccc([N+](=O)[O-])cc1NC(=O)Nc1cccc(Cl)c1 | inconclusive: 16% |
| COc1ccc(/C=C2/SC(=O)N(CC(=O)Nc3ccc(C)c(C)c3)C2=O)cc1OC | inconclusive: 21% |
| CN1C(=O)COc2cc(NS(=O)(=O)NCc3ccccc3)ccc21 | inconclusive: 17% |
| CC(O)c1nc2ccccc2n1Cc1ccccc1 (centres undefined) | active: 36% |
| CN1C(=O)CC(CC(=O)N2CCC(N3CCSCC3)CC2)(c2ccc(-c3ccccc3)cc2)C1=O (centres undefined) | inactive |
| COc1cc(C2C(C#N)=C(N)OC3=C2C(=O)CCC3)cc([N+](=O)[O-])c1O (centres undefined) | inactive |
| O=C(Nc1ccccc1F)c1cc2c(=O)oc3ccccc3c2s1 | inactive |
| O=[N+]([O-])c1ccc(N2CCCC2)cc1NCC1CCCO1 (centres undefined) | active: 30% |
| O=C(NCCc1nc2cccnc2n1C1CCCCC1)Nc1ccccc1 | inconclusive: 22% |
| CCCc1cnc(C)nc1N1CCC2(CC1)C(=O)Nc1ccccc12 | inconclusive: 24% |
| CN1CCN(C(=O)C(C(=O)N2CCN(C)CC2)C23CC4CC(CC(C4)C2)C3)CC1 | inactive |
| CN1C(=O)/C(=C/c2ccc(-c3ccc(C(=O)O)cc3)o2)SC1=Nc1ccc(C(=O)O)cc1 | inconclusive: 23% |
| CCOC(=O)C1C(=O)C=C(c2ccco2)CC1c1ccc(CC)cc1 (centres undefined) | inconclusive: 12% |

4 of the compounds above, with tabs.
SMILES	inhibition
Cc1ccc(-c2ccnc(NCCc3nc(C(C)C)no3)n2)c(C)n1	inconclusive: 12%
CC(=O)Nc1ccc(S(=O)(=O)Nc2cccc(F)c2)cc1	inactive
COc1cc(C2C(C#N)=C(N)OC3=C2C(=O)CCC3)cc([N+](=O)[O-])c1O (centres undefined)	inactive
CN1C(=O)/C(=C/c2ccc(-c3ccc(C(=O)O)cc3)o2)SC1=Nc1ccc(C(=O)O)cc1	inconclusive: 23%

Next records.

| SMILES | inhibition |
| --- | --- |
| CC1=C(C(=O)OCCOc2ccccc2)C(c2ccc(C)o2)C2=C(CCCC2=O)N1 (centres undefined) | inactive |
| COC(=O)[C@@H]1Cc2ncn(C(C)C)c2CN1C(=O)c1ccc(N(C)C)cc1 | inactive |
| Cc1cc(C)n(CC(C)n2cc(-c3nccn3C)nn2)n1 (centres undefined) | inconclusive: 13% |
| Cc1cccc(C(=O)Nc2c3c(nn2-c2ccccc2C)CSC3)c1 | inactive |
| Cc1ccc(C2(c3noc(Cn4cc(CCO)cn4)n3)CCCC2)cc1 | inconclusive: 11% |
| Cc1nc(N2CCOCC2)nc(N2CCN(c3ccccc3)CC2)c1[N+](=O)[O-] | inconclusive: 27% |
| O=C(NCCCN1CCCCC1)c1cc(-c2ccncc2)nc2ccccc12 | inconclusive: 10% |
| COC(=O)[C@@H]1Cc2ncn(C)c2CN1C(=O)CC(C)(C)C | inconclusive: 16% |
| O=C(c1ccccc1Br)N1CCN=C1SCc1ccccc1F | inconclusive: 16% |
| CC1(C)CC2CC(C)(CN2C(=O)c2cc(-c3cccc(Cl)c3)on2)C1 (centres undefined) | inactive |
| CN1C[C@@H](NC(=O)Nc2cccc(C#N)c2)C[C@H]1c1nc(-c2ccc(F)cc2)no1 | inconclusive: 25% |
| COc1ccc(-c2ccc3c(c2)C(=O)N2C[C@@H](NS(=O)(=O)c4ccc(F)cc4)C[C@H]2C(=O)N3)cc1 | inconclusive: 12% |
| CCCCOc1ccccc1C(=O)N1CCC(N2CCCC2=O)CC1 | inactive |
| O=C(N[C@H]1CCN2C(=O)N(c3ccccc3)C(=O)[C@@H]2C1)C1CCCC1 | inconclusive: 25% |
| Oc1[nH]c2ccccc2c1C=NCCCN1CCOCC1 | inconclusive: 29% |
| Cc1ccc(C)c(S(=O)(=O)Nc2ccc3oc(=O)sc3c2)c1 | inconclusive: 13% |
| Cc1cnn(Cc2ccc(Cl)cc2)c1NC(=O)c1cc(-c2cnn(C)c2C)on1 | inconclusive: 13% |
| Cc1nc2nc(-c3ccccc3)cc(-c3ccccc3)n2n1 | inactive |
| CCCCN1C(=O)N(C)C2C1N(C)C(=O)N2CCCC (centres undefined) | inconclusive: 16% |
